No constants are given. Whether binding was seen depends on the method and setting. Some binding calls cover weakened binding; strength is not graded here.
Molecular target: SMRT residues 350-480 (UniProt Q9Y618)
Assay: co-purification (FLAG affinity resin, then gel filtration); HDAC3 and FLAG-SMRT 350-480 co-transfected in HEK293F; cleared lysate on FLAG resin 1 h at 4 °C, washes up to 300 mM potassium acetate, TEV elution, Superdex S200 in 50 mM potassium acetate, 25 mM Tris pH 7.5, 0.5 mM TCEP; afterwards 1 M NaCl treatment to remove Ins(1,4,5,6)P4

Amino acid sequences for entries named in this document (tags omitted). Residues count along the entry.
UniProt Q9Y618, residues 350-480: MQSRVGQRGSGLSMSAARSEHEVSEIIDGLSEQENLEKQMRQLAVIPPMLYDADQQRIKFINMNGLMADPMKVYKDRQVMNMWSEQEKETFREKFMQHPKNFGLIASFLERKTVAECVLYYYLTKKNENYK
UniProt O15379: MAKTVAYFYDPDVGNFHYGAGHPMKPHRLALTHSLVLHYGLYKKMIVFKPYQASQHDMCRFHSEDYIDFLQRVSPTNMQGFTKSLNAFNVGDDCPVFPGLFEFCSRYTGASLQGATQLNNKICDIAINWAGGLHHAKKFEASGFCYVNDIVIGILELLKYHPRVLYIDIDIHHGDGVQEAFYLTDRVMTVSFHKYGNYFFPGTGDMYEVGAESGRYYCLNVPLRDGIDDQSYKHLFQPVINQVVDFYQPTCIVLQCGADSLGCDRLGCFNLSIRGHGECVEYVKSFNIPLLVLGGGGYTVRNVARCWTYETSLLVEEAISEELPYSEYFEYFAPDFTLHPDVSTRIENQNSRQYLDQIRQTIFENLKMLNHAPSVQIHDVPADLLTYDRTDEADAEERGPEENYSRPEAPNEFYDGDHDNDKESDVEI

- binding: binds
Substance: HDAC3 (from UniProt O15379 1-428) (enzyme)

From PMC4848466, “Insights into the activation mechanism of class I HDAC complexes by inositol phosphates” (Nature Communications, 2016)
